Laboratory results as given in patent publication US20250333513A1 (Immunocore, published 2025).
No constants are given. Whether binding was seen depends on the method and setting. Some entries that bind do so weakly or less than the wild type.

The chains behind the UniProt entries cited, without tags or fusion partners. Where a name states a change or a piece, a line headed by the entry shows the natural chain unless it says otherwise. Residues count along the entry.
UniProt P06126, residues 17-300: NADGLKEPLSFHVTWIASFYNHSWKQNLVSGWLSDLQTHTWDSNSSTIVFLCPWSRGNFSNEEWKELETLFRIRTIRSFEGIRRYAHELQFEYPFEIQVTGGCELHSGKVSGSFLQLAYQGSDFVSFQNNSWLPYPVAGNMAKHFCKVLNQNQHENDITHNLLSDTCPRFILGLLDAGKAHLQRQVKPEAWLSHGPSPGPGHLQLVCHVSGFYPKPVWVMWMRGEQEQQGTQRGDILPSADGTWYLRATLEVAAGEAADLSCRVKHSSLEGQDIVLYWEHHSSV
UniProt Q15116: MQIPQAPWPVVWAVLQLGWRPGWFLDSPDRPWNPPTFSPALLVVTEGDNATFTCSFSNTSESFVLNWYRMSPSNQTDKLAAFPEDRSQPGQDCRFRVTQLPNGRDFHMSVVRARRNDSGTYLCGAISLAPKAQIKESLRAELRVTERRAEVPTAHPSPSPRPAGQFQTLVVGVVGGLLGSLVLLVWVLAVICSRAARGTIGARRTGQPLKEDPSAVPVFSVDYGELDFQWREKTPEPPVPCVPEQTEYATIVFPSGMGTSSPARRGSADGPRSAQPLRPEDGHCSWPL

Columns and labels:
[1] = target: recombinant human CD1a protein (human) (UniProt P06126); assay: crystal structure
[2] = target: T1, extracellular region of human PD-1 (human, UniProt Q15116 25-170); assay: crystallography
T1 construct: also called extracellular domain of human PD-1

Binder	binding [1]	binding [2]
Ab002 WT VHH CD1a antibody (Ab002 Llama WT) (VHH) VHH: EVQLVESGGGLVQAGGSLRLSCAPSGRTFNPGDLMGWFRQAPGKEREFVAAIKWGPTYYADSVKGRFTISRDYVRNTVYVQMNDLKAEDTAVYYCAGKGSGTFSSNYRDFEYWGQGTQVTVSS	binds	
Ab007 WT VHH CD1a antibody (Ab007 Llama WT) (VHH) VHH: EVQLVESGGRLAQAGGSLRLSCAASGRAFRPHNVMAWFRQAPEKEREFVAAARWSGIYYAESVKGRFSVSRDYDKNAVFLQMNGLKPEDTAVYYCAVSTAQDMTLALMSDYDYWGQGIQVTVSS	binds	
PD-1 agonist VHH (camelid PD-1 agonist VHH) (VHH, also called PD-1 VHH domain; PD-1 VHH antibody) VHH: EVQLVESGGALVQPGGSLRLSCAASGFTFSSYAMTWVRQAPGKGPEWVSAIASDGASTSYLDSVKGRFTVSRDNAKNTLYLQMNSLKPEDTAVYYCARGGYLTYDRYGQGTQVTVSS		binds
